Measured values as given in patent US8188144B2, “In vitro preservation of living animal cells and compounds suitable for use in the preservation of living animal cells” (Antoxis Limited, priority 2007, dated 2012).

System: mouse embryonic stem cells
Assay: MTT cell viability assay of tert-butyl hydroperoxide oxidative stress-induced cytotoxicity in mouse embryonic stem cells
Format: cell-based
Method: Oxidative stress and related free radical damage can be induced in cells, including stem cells, by exposing the cells to tert-butyl hydroperoxide in the incubation medium. Decomposition of the peroxide over a period of time leads to a steady generation of reactive oxygen species. This in turn triggers a cascade of free radical-mediated events that eventually leads to irreversible damage and ultimately cell death as the natural antioxidant defences are overwhelmed.
The extent of cytotoxicity induced by peroxide exposure can be quantified using a number of well-documented assays, including the MTT protocol. This is a colorometric assay that measures the reduction of MTT to formazan, a process that can only occur when cells are viable. Thus, by comparing the amount of formazan produced in control cells, against cells treated with a cytotoxic agent, such as tert-butyl hydroperoxide, the reduction in cell viability induced by the agent can be measured.
The assay can be further extended to determine the effectiveness of compounds to provide protection against cytotoxic agents. In the case of the novel antioxidants, the subject of this patent, this can be achieved by pre-incubation of the cells with the antioxidant agent prior to induction of oxidative stress by tert-butyl hydroperoxide. Thus a comparison of the amount of formazan produced by control cells against cells with the cytotoxic peroxide present, plus or minus pre-incubation with the novel antioxidant, can determine the extent by which the compound can retain cell viability.
A 96-well plate was seeded with approximately 20,000 mouse embryonic stem cells per well and left to grow at 37° C. (5% CO2) overnight. Antioxidants, denoted as Exp.1, Exp.2 and Exp.3, were dissolved in DMSO and added to the wells in triplicate 30 min before induction of oxidative stress with tert-butyl hydroperoxide. The resultant concentrations of the tested antioxidants in the wells were 0.1, 0.5 and 1 μM. Controls were also initiated using cell medium (DMEM^+)/DMSO. After the 30 min pre-incubation period, tert-butyl peroxide was added to the wells to provide a final concentration of 400 μM. The plated cells were returned to the incubator (37° C.) for 90 min. After this period, 20 μL of the MTT reagent solution was added to all of the wells. The plate was then further incubated for a further 3 hours. The supernatant was removed from the wells and 200 μl DMSO added to all wells to solubilise reduced MTT (formazan). The plate was protected from light and shaken for 10 min. The supernatant was removed from the wells and aliquoted into a new 96-well plate for the colorometric measurements. Absorbance was determined at 540 nm.
The average corrected absorbance. (0.737) for the DMEM^+ control (which contained no antioxidant compounds or tert-butyl hydroperoxide) represented the 100% viability benchmark. Comparison of the corrected absorbances in the various well treatment regimes relative to that of the DMEM^+ control enabled the resultant effects on cell viability to be calculated. tBHP=tert-butyl hydroperoxide.

[1] = 400 μM tBHP alone, no antioxidant, 90 min, 540 nm
[2] = 0.1 μM compound, 30 min pre-incubation, then 400 μM tBHP 90 min, 540 nm
[3] = 0.5 μM compound, 30 min pre-incubation, then 400 μM tBHP 90 min, 540 nm
[4] = 1 μM compound, 30 min pre-incubation, then 400 μM tBHP 90 min, 540 nm
[5] = 1 μM compound, no tBHP, MTT, absorbance at 540 nm

SMILES | Ave. Absorbance [1] | Ave. Corrected Absorbance [1] | Ave. Absorbance [2] | Ave. Corrected Absorbance [2] | Ave. Absorbance [3] | Ave. Corrected Absorbance [3] | Ave. Absorbance [4] | Ave. Corrected Absorbance [4] | Ave. Absorbance [5] | Ave. Corrected Absorbance [5]
CC(C)(C)OO [tBHP, tert-butyl hydroperoxide, reference compound] | 0.347 | 0.273 |  |  |  |  |  |  |  | 
CCCCCCCCCCCCc1cc(=O)c(O)c(-c2cc(O)c(O)c(O)c2)o1 [Exp.2] |  |  | 0.520 | 0.446 | 0.773 | 0.699 | 0.788 | 0.714 | 0.841 | 0.767
CCCCCCCCc1cc(=O)c(O)c(-c2cc(O)c(O)c(O)c2)o1 [Exp.3] |  |  | 0.328 | 0.254 | 0.483 | 0.409 | 0.593 | 0.519 |  | 
CCCCCCCCCCc1ccc2c(=O)c(O)c(-c3cc(O)c(O)c(O)c3)oc2c1 [Exp.1] |  |  | 0.494 | 0.420 | 0.712 | 0.638 | 0.700 | 0.625 | 0.866 | 0.791
